No constants are given. Whether binding was seen depends on the method and setting. Binding seen in cells or lysates may run through a third protein. Where a sequence is shown, tags or fusion partners need not be part of it.

The target in this assay is T1, V5-tagged ADV-1 (Neurospora crassa) (UniProt Q9P326).
T1 sequence: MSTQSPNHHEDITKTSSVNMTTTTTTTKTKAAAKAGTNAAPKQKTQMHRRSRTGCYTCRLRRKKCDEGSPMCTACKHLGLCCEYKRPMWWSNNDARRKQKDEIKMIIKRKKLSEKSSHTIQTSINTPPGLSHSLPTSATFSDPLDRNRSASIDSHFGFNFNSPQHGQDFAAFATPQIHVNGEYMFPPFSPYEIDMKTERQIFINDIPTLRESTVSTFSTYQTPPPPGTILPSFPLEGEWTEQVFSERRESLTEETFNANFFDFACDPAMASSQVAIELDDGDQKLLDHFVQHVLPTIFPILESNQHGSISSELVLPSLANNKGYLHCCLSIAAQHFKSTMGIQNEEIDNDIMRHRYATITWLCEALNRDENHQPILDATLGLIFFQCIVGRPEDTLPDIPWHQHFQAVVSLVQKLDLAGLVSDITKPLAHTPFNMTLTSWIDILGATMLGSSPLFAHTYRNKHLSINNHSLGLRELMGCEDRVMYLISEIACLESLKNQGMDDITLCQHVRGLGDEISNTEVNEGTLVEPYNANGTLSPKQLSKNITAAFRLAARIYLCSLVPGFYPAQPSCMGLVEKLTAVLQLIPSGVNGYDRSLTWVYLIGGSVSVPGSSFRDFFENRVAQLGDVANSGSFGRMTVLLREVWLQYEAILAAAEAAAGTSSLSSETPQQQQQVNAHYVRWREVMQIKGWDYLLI
As to the kind of experiment: co-IP; ADV-1 purified by V5 agarose beads from strain adv-1^V5, csp-6^FLAG, also with DSP crosslink; CSP-6 looked for in the IP sample.

In the case of “CSP-6 tagged with FLAG (Neurospora crassa) (enzyme)”, the binding entry is recorded as “no binding”.

The record behind these values is publication PMC5800702.
